Measurements published in paper PMC12115182.

Amino acid sequences for entries named in this document (tags omitted). A change or cut given only in a name is not applied to a line headed by its entry.
UniProt P15927: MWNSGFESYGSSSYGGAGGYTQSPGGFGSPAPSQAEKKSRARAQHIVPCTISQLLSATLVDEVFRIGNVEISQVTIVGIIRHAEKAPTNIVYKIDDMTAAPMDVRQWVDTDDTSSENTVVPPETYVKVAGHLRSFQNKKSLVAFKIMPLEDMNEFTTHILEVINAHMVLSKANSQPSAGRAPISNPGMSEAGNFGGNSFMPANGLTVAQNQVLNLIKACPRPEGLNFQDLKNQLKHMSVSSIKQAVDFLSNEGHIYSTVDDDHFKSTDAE

Target: huRPA32 (human RPA32) (human) (UniProt P15927)
Assay: EMSA
Details: 10 uM huRPA32, 1% DMSO control, 40 mM Tris-HCl pH 7.5, 50 mM NaCl, 37 C, 60 min, 8% native PAGE in TBE, 100 V 1 h, recombinant protein, single-stranded DNA

## TTTTTTTTTTTTTTTTTTTTTTTTT [dT25]
Inhibition by S. purpurea leaf acetone extract Sp-L-A
  IC50: 236 µg/mL
Inhibition by S. purpurea root acetone extract Sp-R-A
  IC50: 13.6 µg/mL
Inhibition by S. purpurea stem acetone extract Sp-S-A
  IC50: 43 µg/mL

For at least one entry, the source does not settle the construct or the ends of the probe.
